Common to all, as to test: DAPPL (digital affinity profiling via proximity ligation, sequencing)
Conditions in all cases: 10 mM Tris-HCl pH 7.5, 50 mM NaCl, 1 mM DTT, 4% glycerol, room temperature, 30 min; GST-TFs on glutathione beads, 16-mer random dsDNA library, 0.1% …; high values mean tight binding; double strand, one strand shown; scale: fold enrichment (6-mer frequency, TF over GST control)

For one assay, the target named is T1, ELK1 (UniProt P19419).
T1 sequence: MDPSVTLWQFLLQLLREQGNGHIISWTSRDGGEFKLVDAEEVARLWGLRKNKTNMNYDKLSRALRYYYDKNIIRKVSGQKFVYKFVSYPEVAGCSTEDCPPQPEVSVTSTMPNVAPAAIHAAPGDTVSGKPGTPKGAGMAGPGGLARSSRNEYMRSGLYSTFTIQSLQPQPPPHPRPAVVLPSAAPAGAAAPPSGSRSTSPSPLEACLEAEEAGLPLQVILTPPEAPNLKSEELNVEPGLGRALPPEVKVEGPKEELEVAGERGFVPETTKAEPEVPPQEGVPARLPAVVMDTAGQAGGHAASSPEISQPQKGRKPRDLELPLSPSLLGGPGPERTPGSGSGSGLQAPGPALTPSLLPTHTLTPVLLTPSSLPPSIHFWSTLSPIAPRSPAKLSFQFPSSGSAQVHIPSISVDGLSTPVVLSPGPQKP

Another assay addresses T2, ELK3 (UniProt P41970).
T2 sequence: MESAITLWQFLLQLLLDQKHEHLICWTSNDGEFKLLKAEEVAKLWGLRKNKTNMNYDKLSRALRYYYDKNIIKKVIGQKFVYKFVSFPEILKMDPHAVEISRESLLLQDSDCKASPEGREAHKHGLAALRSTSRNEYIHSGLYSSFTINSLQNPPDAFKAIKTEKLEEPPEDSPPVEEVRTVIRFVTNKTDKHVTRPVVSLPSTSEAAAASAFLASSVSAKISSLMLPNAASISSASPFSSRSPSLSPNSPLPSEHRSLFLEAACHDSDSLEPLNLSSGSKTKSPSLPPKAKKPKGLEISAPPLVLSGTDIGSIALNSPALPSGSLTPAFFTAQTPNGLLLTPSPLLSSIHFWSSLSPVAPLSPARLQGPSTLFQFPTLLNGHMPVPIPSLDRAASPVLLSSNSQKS

The next assay concerns the target T3, SPIC (UniProt Q8N5J4).
T3 sequence: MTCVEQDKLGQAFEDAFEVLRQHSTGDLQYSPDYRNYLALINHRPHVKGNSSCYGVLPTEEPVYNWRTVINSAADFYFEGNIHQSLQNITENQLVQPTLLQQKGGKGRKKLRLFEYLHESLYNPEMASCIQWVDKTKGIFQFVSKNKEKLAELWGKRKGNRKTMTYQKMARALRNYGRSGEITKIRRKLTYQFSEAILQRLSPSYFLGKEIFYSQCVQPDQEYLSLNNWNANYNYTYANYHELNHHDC

A further assay addresses T4, ETS2 (UniProt P15036).
T4 sequence: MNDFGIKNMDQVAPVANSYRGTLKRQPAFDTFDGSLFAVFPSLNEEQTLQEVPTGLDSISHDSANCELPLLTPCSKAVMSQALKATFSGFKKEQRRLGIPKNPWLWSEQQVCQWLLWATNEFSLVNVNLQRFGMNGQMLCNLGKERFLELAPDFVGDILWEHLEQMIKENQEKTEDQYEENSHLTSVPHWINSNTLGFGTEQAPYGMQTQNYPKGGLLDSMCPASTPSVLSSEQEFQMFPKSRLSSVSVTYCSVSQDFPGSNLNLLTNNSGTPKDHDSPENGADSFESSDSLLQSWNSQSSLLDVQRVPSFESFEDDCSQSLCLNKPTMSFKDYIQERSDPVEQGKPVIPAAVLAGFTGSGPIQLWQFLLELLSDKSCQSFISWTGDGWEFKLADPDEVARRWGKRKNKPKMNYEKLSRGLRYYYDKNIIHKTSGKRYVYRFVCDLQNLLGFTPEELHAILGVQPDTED

In a further assay the target is T5, ETV3 (UniProt P41162-2).
T5 sequence: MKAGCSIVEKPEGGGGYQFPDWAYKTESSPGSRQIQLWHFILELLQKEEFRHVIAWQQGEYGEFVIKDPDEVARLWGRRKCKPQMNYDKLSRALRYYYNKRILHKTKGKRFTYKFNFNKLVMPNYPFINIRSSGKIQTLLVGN

The list shows a part of the results, in another mix than the full data. At the low end of the ranking the order means little.

In the case of AGCCAA, the binding signal was determined as 0.837 with ELK1; 0.83 with ELK3; 0.966 with SPIC; 0.861 in the assay with ETS2; 0.863 with ETV3.
The like results for GGGCGC were, in that order, 0.605, 0.655, 0.62, 0.56 and 0.58.
The like results for ACGCAA were, in that order, 0.946, 0.966, 0.897, 0.97 and 0.929.
In the case of GGAGTT, the binding signal came to 0.454 with ELK1; 0.458 with ELK3; 0.544 with SPIC; 0.478 with ETS2; 0.43 with ETV3.
The corresponding values for CAACGT are 0.901, 0.999, 0.844, 0.861 and 0.865.
The corresponding values for AGGTCA are 0.753, 0.76, 0.681, 0.694 and 0.773.
The like results for CGTGTT were, in that order, 0.832, 0.81, 0.846, 0.842 and 0.893.
Regarding CGCGGA, the binding signal in the assay with ELK1 worked out at 0.863; with ELK3, 0.896; with SPIC, 0.954; with ETS2, 1; with ETV3 it was 1.01.
The corresponding values for GTAGAC are 0.756, 0.754, 0.794, 0.763 and 0.713.
The like results for GAGCCC were, in that order, 0.644, 0.787, 0.76, 0.708 and 0.765.
The corresponding values for TGGGGC are 0.803, 0.831, 0.803, 0.803 and 0.788.
For GGGTTG, the binding signal worked out at 0.843 with ELK1; 0.764 with ELK3; 0.928 with SPIC; 0.843 with ETS2; 0.771 in the assay with ETV3.
As to GTCGAA, the binding signal in the assay with ELK1 is 0.629; with ELK3, 0.632; in the assay with SPIC, 0.598; in the assay with ETS2 it was 0.645; with ETV3, 0.605.
The like results for AGGGCC were, in that order, 0.935, 0.902, 1.02, 0.914 and 0.972.
The like results for GACTGA were, in that order, 0.852, 0.652, 0.845, 0.813 and 0.897.
The corresponding values for TAGAGC are 0.784, 0.82, 0.949, 0.769 and 0.771.
As to AGTTAG, the binding signal in the assay with ELK1 came out at 0.863; in the assay with ELK3, 0.796; with SPIC, 0.765; with ETS2, 0.831; in the assay with ETV3 it was 0.791.
The corresponding values for AGCCGC are 0.961, 0.971, 0.868, 0.795 and 0.919.
The like results for GGTAGA were, in that order, 0.676, 0.593, 0.721, 0.69 and 0.665.
Consider GGGCAC, for which the binding signal was 0.76 with ELK1; 0.81 in the assay with ELK3; 0.869 in the assay with SPIC; 0.822 with ETS2; 0.837 with ETV3.
The corresponding values for AGACAT are 0.818, 0.815, 0.87, 0.811 and 0.84.
Consider GACGGA, for which the binding signal with ELK1 was 0.495; in the assay with ELK3, 0.556; in the assay with SPIC, 0.458; with ETS2, 0.486; with ETV3 it was 0.542.
The corresponding values for ATCCAG are 0.873, 0.885, 0.86, 0.839 and 0.894.
The like results for AACGTG were, in that order, 0.358, 0.359, 0.381, 0.364 and 0.382.
With AGTCGA, the binding signal was found to be 0.394 with ELK1; 0.385 with ELK3; 0.448 with SPIC; 0.406 with ETS2; 0.417 with ETV3.
The like results for AGAGCG were, in that order, 0.446, 0.439, 0.46, 0.402 and 0.478.
As to GTCAAG, the binding signal in the assay with ELK1 was 0.797; in the assay with ELK3 it was 0.873; with SPIC, 0.759; with ETS2 it was 0.808; with ETV3, 0.742.
Take CAGTAA: the binding signal with ELK1 is 0.725; in the assay with ELK3, 0.774; with SPIC, 0.702; with ETS2, 0.771; with ETV3 it was 0.734.
The corresponding values for GTGACG are 0.666, 0.648, 0.652, 0.657 and 0.745.
The like results for GGCGGA were, in that order, 0.367, 0.387, 0.437, 0.374 and 0.374.

For the origin of these results see PMC7862700.
